This test has as its target T1, His-tagged TYMP (thymidine phosphorylase), recombinant (UniProt P19971).
T1 sequence: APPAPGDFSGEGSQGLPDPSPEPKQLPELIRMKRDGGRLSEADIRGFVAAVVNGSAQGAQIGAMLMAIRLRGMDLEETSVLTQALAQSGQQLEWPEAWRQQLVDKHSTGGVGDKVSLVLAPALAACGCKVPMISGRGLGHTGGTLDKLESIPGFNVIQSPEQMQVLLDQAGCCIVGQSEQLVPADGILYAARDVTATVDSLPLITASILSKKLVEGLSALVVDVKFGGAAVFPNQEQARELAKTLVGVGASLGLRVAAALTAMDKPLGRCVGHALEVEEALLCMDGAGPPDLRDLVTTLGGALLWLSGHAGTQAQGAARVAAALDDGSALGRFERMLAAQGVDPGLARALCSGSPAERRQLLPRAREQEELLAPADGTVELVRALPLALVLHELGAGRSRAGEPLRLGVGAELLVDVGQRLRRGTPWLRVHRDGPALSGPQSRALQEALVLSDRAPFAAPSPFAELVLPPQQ
Put plainly: pull-down; 10 ug His-tagged TYMP bound to His60 Ni magnetic beads, incubated 2 h with 1 mL human monocyte lysate (250 ug protein, EzRIPA lysis buffer), washed 3 times with PBST, then SDS-PAGE and Western blot; negative controls were lysate and beads without TYMP; only the target purified.

By UniProt entry, the sequences of proteins in these tests, tags left out. Where a name states a change or a piece, a line headed by the entry shows the natural chain unless it says otherwise.
UniProt P05556: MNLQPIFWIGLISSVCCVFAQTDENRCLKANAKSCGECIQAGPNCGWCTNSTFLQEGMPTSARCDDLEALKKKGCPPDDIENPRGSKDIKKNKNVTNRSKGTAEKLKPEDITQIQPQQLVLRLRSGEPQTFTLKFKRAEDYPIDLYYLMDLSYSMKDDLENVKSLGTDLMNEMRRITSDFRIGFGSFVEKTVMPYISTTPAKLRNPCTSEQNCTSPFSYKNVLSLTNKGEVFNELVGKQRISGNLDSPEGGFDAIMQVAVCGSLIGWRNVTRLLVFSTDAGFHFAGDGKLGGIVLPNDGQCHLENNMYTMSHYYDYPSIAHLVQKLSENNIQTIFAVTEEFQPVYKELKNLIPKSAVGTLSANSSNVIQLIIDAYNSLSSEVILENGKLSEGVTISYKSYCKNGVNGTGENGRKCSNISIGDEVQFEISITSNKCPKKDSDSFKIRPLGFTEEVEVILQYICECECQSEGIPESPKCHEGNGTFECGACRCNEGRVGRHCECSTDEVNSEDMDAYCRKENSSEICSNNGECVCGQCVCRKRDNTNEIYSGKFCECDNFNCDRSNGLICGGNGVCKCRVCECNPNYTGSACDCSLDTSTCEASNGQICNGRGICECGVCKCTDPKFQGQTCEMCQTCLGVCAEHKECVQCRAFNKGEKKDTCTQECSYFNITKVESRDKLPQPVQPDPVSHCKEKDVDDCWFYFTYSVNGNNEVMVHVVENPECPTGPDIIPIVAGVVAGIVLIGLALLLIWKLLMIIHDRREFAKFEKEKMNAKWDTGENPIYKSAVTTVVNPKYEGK
UniProt P06241: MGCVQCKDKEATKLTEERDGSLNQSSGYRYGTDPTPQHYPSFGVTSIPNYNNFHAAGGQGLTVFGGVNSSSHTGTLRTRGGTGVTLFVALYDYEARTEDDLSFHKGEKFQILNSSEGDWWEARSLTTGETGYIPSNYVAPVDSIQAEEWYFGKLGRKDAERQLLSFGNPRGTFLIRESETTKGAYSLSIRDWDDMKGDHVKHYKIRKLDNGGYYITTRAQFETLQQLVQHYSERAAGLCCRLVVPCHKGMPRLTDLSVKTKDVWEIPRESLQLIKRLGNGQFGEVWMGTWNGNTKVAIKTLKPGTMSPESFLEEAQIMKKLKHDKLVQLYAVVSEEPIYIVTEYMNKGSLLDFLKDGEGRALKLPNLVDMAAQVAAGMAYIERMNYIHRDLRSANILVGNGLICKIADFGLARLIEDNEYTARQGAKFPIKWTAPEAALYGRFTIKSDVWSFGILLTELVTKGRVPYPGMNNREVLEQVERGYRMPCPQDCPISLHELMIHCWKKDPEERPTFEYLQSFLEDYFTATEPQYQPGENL

No constants are given. Whether binding was seen depends on the method and setting. Binding seen in cells or lysates may run through a third protein. Some results given as binding are weak or reduced against the parent protein; the word gives no strength. Where a sequence is shown, tags or fusion partners need not be part of it.

In the case of “Integrin beta-1 (from UniProt P05556 21-798) (receptor)”, the binding result is recorded as “binds”.
The same measure for “tyrosine kinase FYN (from UniProt P06241 1-537) (enzyme)”: “binds”.

The values are drawn from publication PMC8459589.
